Values from PubChem BioAssay AID493246 (Drosophila RNAi Screening Center, 2011)
In all, the deposit lists about 21,000 reagents; below is a random part of those that have a named target and a result. In the full data, 429 (2%) got an active call. 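Values are raw and not normalised between plates; calls rest on per-plate z-scores that were not deposited.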 Names joined by + are all predicted targets of the reagent. Not given: the amount of reagent, the time to read-out.

Test: 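Identify essential fly genes by loss of cell viability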 (primary screen)
System: Drosophila Kc and S2R+ cells
Reagents: long dsRNA against Drosophila genes
Measurement: 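Cell number per well after knock-down, printed as raw plate values; calls were based on per-plate z-scores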
Scale: Kc cell number and S2R+ cell number: higher = more cells remaining
Hit rule: 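Counted as a hit if cell number falls by a z-score of at least 3 within its plate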

The opening 2 records, to show the layout:
predicted target | DRSC id | Kc cell number, rep 1 | Kc cell number, rep 2 | S2R+ cell number, rep 1 | S2R+ cell number, rep 2 | Call
Gr94a (Gustatory receptor 94a) | DRSC13597 | 1.57e6 | 1.53e6 | 1.08e6 | 1.24e6 | inactive
Jon66Ci (Jonah 66Ci) | DRSC10772 | 1.40e6 | 1.42e6 | 1.14e6 | 1.17e6 | inactive

The listing, from the first entry:
predicted target | DRSC id | Kc cell number, rep 1 | Kc cell number, rep 2 | S2R+ cell number, rep 1 | S2R+ cell number, rep 2 | Call
Gr94a (Gustatory receptor 94a) | DRSC13597 | 1.57e6 | 1.53e6 | 1.08e6 | 1.24e6 | inactive
Jon66Ci (Jonah 66Ci) | DRSC10772 | 1.40e6 | 1.42e6 | 1.14e6 | 1.17e6 | inactive
CG6013 | DRSC15947 | 1.52e6 | 1.60e6 | 1.14e6 | 1.17e6 | inactive
lncRNA:CR42646 (long non-coding RNA:CR42646) | DRSC04759 | 1.49e6 | 1.62e6 | 1.01e6 | 1.31e6 | inactive
CG10029 | DRSC12498 | 1.61e6 | 1.79e6 | 1.48e6 | 1.61e6 | inactive
CG14811 | DRSC17962 | 1.51e6 | 1.42e6 | 9.98e5 | 1.12e6 | inactive
CG13114 | DRSC02212 | 1.78e6 | 1.89e6 | 1.15e6 | 1.33e6 | inactive
nmo (nemo) | DRSC08902 | 1.49e6 | 1.54e6 | 1.13e6 | 1.35e6 | inactive
nmo (nemo) | DRSC11377 | 1.36e6 | 1.43e6 | 1.35e6 | 1.34e6 | inactive
SP1173 | DRSC11277 | 1.34e6 | 1.43e6 | 1.20e6 | 1.13e6 | inactive
CG42749 | DRSC18091 | 1.60e6 | 1.60e6 | 1.12e6 | 1.24e6 | inactive
CG42749 | DRSC18092 | 1.53e6 | 1.57e6 | 1.14e6 | 1.23e6 | inactive
CG15404 | DRSC00418 | 1.63e6 | 1.65e6 | 1.23e6 | 1.35e6 | inactive
sowah (sosondowah) | DRSC09186 | 1.53e6 | 1.51e6 | 1.25e6 | 1.42e6 | inactive
sowah (sosondowah) | DRSC09758 | 1.34e6 | 1.42e6 | 1.25e6 | 1.17e6 | inactive
CG7203 | DRSC03026 | 1.60e6 | 1.61e6 | 1.12e6 | 1.21e6 | inactive
Aplip1 (APPL-interacting protein 1) | DRSC07947 | 1.74e6 | 1.73e6 | 1.05e6 | 1.27e6 | inactive
Aplip1 (APPL-interacting protein 1) | DRSC08697 | 1.47e6 | 1.29e6 | 1.00e6 | 1.24e6 | inactive
CG31388 | DRSC15254 | 1.49e6 | 1.54e6 | 1.19e6 | 1.25e6 | inactive
Nadk1b (NAD kinase 1b) | DRSC05432 | 1.48e6 | 1.40e6 | 9.98e5 | 1.15e6 | inactive
Nadk1b (NAD kinase 1b) | DRSC06964 | 1.42e6 | 1.51e6 | 1.20e6 | 1.18e6 | inactive
Nadk1b (NAD kinase 1b) | DRSC06965 | 1.58e6 | 1.55e6 | 1.25e6 | 1.35e6 | inactive
CG13751 | DRSC06422 | 1.57e6 | 1.54e6 | 1.27e6 | 1.35e6 | inactive
Snmp1 (Sensory neuron membrane protein 1) | DRSC16168 | 1.24e6 | 1.18e6 | 8.98e5 | 1.01e6 | inactive
CG5521 | DRSC15828 | 1.47e6 | 1.44e6 | 1.02e6 | 1.04e6 | inactive
Rbbp5 + CG6434 (retired record) | DRSC10635 | 1.64e6 | 1.76e6 | 1.23e6 | 1.36e6 | inactive
Mst98Cb (Male-specific RNA 98Cb) | DRSC16750 | 1.32e6 | 1.32e6 | 1.00e6 | 1.17e6 | inactive
Ogg1 (8-oxoguanine DNA glycosylase) | DRSC17738 | 5.97e5 | – | 8.95e5 | – | inactive
CG18581 | DRSC10324 | 1.37e6 | 1.47e6 | 1.16e6 | 1.27e6 | inactive
sas (stranded at second) | DRSC12631 | 1.58e6 | 1.72e6 | 1.29e6 | 1.39e6 | inactive
CG13744 | DRSC06415 | 1.60e6 | 1.72e6 | 1.07e6 | 1.18e6 | inactive
Obp85a (Odorant-binding protein 85a) | DRSC14362 | 1.49e6 | 1.60e6 | 1.27e6 | 1.42e6 | inactive
jbug (jitterbug) | DRSC03952 | 5.27e5 | – | 8.54e5 | – | inactive
jbug (jitterbug) | DRSC04114 | 1.35e6 | 1.42e6 | 1.05e6 | 1.17e6 | inactive
jbug (jitterbug) | DRSC04167 | 1.86e6 | 1.85e6 | 1.25e6 | 1.34e6 | inactive
jbug (jitterbug) | DRSC04388 | 1.68e6 | 1.71e6 | 1.38e6 | 1.49e6 | inactive
l(2)03659 (lethal (2) 03659) | DRSC07269 | 1.47e6 | 1.57e6 | 1.26e6 | 1.39e6 | inactive
l(2)03659 (lethal (2) 03659) | DRSC07638 | 1.53e6 | 1.57e6 | 1.31e6 | 1.39e6 | inactive
hook | DRSC03545 | 1.33e6 | 1.35e6 | 1.23e6 | 1.25e6 | inactive
EcR (Ecdysone receptor) | DRSC04906 | 1.53e6 | 1.57e6 | 1.34e6 | 1.49e6 | inactive
EcR (Ecdysone receptor) | DRSC04910 | 1.32e6 | 1.36e6 | 1.14e6 | 1.20e6 | inactive
